Assay results from patent US7358379B2, “Steroid conjugates, preparation thereof and the use thereof” (Bionature E.A. Limited, priority 2002, dated 2008).

Tested on: membrane testosterone receptors in LNCaP cells
Assay: Saturation binding of [3H]testosterone to LNCaP cell membranes
Set-up: species or system human
Experimental: Cells, cultured in 150 cm^2 flasks without serum, were washed twice with phosphate-buffered saline (PBS), removed by scraping and centrifuged at 1500 rpm. Pelleted cells were homogenized by sonication in 50 mM Tris-HCl buffer pH 7.4 containing freshly added protease inhibitors (10 μg/ml PMSF and 1 μg/ml aprotinin). Unbroken cells were removed by centrifugation at 2500 g for 15 min. Membranes were obtained by centrifugation at 45,000 g for 1 hour, and washed once by the same buffer. Protein concentration was measured by the method of Bradford.
Saturation binding experiments were performed in a final volume of 0.1 ml, containing cell membranes at a final protein concentration of 2 mg/ml and at least 6 different concentrations of [^3H]testosterone (ranging 2-50 nM) without (total binding) or with (non-specific binding) a 100-fold molar excess of unlabelled androgen (DHT). […] In both types of binding experiments, after an overnight incubation at 4° C., bound radioactivity was separated by filtration under reduced pressure through GF/B filters previously soaked in 0.5% polyethylenimine (PEI) in water and rinsed three times with ice-cold Tris-HCl buffer. Filters were mixed with 4 ml scintillation cocktail and the bound radioactivity was counted in a scintillation counter (Tricarb, Series 4000, Packard) with 60% efficiency for Tritium. […]

## C[C@]12CC[C@H]3[C@@H](CCC4=CC(=O)CC[C@@]43C)[C@@H]1CC[C@@H]2O [testosterone]
LNCaP cells
  approximate number of sites/cell: ~13340 sites/cell
LNCaP membranes, Scatchard analysis
  number of binding sites: 144.3 fmoles/mg protein
